Key:
[1] = Retention on control column, histidine coated gel; conditions: 37 °C, void time 1.6 min
[2] = Retention on control column, exposed silica gel; conditions: 37 °C, void time 1.6 min

Compound	Retention times, Histidine coated gel [1] [min]	Retention times, Exposed silica gel [2] [min]
CN(C)C(=O)Oc1cc(OC(=O)N(C)C)cc(C(O)CNC(C)(C)C)c1 (centres unmarked) [bambuterol]	1.59	1.56
CC(C)NCC(O)c1ccccc1Cl (centres unmarked) [clorprenaline]	1.64	1.71
CC(C)(C)NCC(O)c1ccc(O)c(CO)c1 (centres unmarked) [salbutamol]	1.62	1.65
CC(C)(C)NCC(O)c1ccccc1Cl (centres unmarked) [tobuterol]	1.67	1.58
